Source: the supplement of paper PMC12823440, “Inhibitors supercharge kinase turnover through native proteolytic circuits” (Nature, 2025)
Structures can show the parent of a compound that is named as a salt. This is one part of the list. The calls rarely recur for the same compound in another form.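 Kinases were expressed as nanoluciferase fusions in K562 cells and luminescence was read every 4 h between 2 and 18 h as percent of control, DMSO set to 100% and a positive control to 0%. A time point counts as decreased when the signal drops significantly (2 sigma). The hit call is the authors' own, does not follow from the count of time points alone, and its rule is not shown.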

biological target: CDK2 (UniProt P24941); test: kinase-Nluc reporter destabilization hit call (1 = scored as downregulated) (binary); higher = compound decreases kinase abundance; settings: K562; 2-18 h

kinase-Nluc reporter destabilization hit call, inactive:
CC(C)CCN1c2nc(Nc3cc(F)c(O)c(F)c3)ncc2N(C)C(=O)C1C (stereo not drawn) (2.5 µM) 0
CC(C)=CC[C@@H](O)C1=CC(=O)c2c(O)ccc(O)c2C1=O [Shikonin] (10 µM) 0
CCC(=O)Nc1cccc(Oc2nc(Nc3ccc(N4CCN(C)CC4)cc3OC)ncc2Cl)c1 (10 µM) 0
CC(C)=CCC/C(C)=C/CC/C(C)=C/C=C/C(C)=C/C(=O)O [Peretinoin] (10 µM) 0
COc1ccc2c(Oc3ccc4c(C(=O)Nc5ccccc5N)cccc4c3)ccnc2c1 [Chiauranib] (10 µM) 0
Cc1nn(C)cc1-c1nc2c(N3CCN(Cc4ccc(Cl)cc4)CC3)c(Cl)cnc2[nH]1 (10 µM) 0
CNC(=O)c1cc2c(Oc3ccc(NC(=O)C4(C(=O)Nc5ccc(F)cc5)CC4)cc3)ccnc2cc1OC (2.5 µM) 0
O=C(Nc1cccnc1)c1cc(-c2ccnc(F)c2)ccc1OCc1ccccc1 (10 µM) 0
CN(C)c1ccc(-c2nc3ncc(Cl)c(N4CCN(CC(=O)Nc5nccs5)CC4)c3[nH]2)cc1 (2 µM) 0
Cc1cc(C(=O)NC(C)(C)C)cc(C#Cc2ccc3c4c(oc3c2)C(C)(C)c2cc(NS(C)(=O)=O)ccc2C4=O)n1 (10 µM) 0
O=C(O)c1cc(N(Cc2ccccc2O)Cc2cc(O)ccc2O)ccc1O [Lavendustin A] (10 µM) 0
C[C@@H](Nc1ncnc2[nH]c(-c3ccc(O)cc3)cc12)c1ccccc1 (2.5 µM) 0
O=C(O)c1ccc(/C=C/S(=O)(=O)Cc2ccc(Cl)cc2)cc1 [Recilisib] (10 µM) 0
Nc1nc(NCCNc2ncc(-n3ccnc3)c(-c3ccc(Cl)cc3Cl)n2)ccc1[N+](=O)[O-] (2.5 µM) 0
Cc1cnc(NC(=O)c2cc(Oc3cnc(C(=O)N(C)C)nc3)c3cc(C)oc3c2)cn1 (10 µM) 0
CNC(=O)CNc1cnc2ccc(-c3ccc(OC)c(OC)c3)cc2n1 (10 µM) 0
N[C@@H]1CCCN(c2c(/C=C3\SC(=O)NC3=O)cccc2-c2ccccc2)C1 (10 µM) 0
CO[C@H]1C[C@@H]2CC[C@@H](C)[C@@](O)(O2)C(=O)C(=O)N2CCCC[C@H]2C(=O)O[C@H]([C@H](C)C[C@@H]2CC[C@@H](OC(=O)C(C)(CO)CO)[C@H](OC)C2)CC(=O)[C@H](C)/C=C(\C)[C@@H](O)[C@@H](OC)C(=O)[C@H](C)C[C@H](C)/C=C/C=C/C=C/1C [Temsirolimus] (2.5 µM) 0
COc1cc2nccc(Oc3ccc(NC(=O)c4cn(C(C)C)c(=O)n(-c5ccc(F)cc5)c4=O)cc3F)c2cc1OC (0.5 µM) 0
C=C1CCC[C@]2(C)C=C3OC(=O)C(C)=C3C[C@@H]12 [Atractylenolide I] (10 µM) 0
C=CC(=O)Nc1cc(Nc2nccc(-c3cn(C)c4ccccc34)n2)c(OC)cc1OCCN(C)C [Rezivertinib] (2.5 µM) 0
C=C1C(=O)[C@@]23[C@H](O)C[C@@H]4C(C)(C)C(=O)CC[C@@]4(C)[C@@H]2CC[C@@H]1[C@H]3O [Glaucocalyxin A] (2.5 µM) 0
NC1(C(=O)NCCCn2cc(-c3ccc(OC(F)(F)F)cc3)c3cc(CN4CCN(Cc5c(Cl)cccc5Cl)CC4)ccc32)CCNCC1 (2.5 µM) 0
CC(Sc1nc2c(cnn2-c2cccc(Cl)c2)c(=O)[nH]1)C(N)=O (stereo not drawn) (10 µM) 0
Fc1ccc2[nH]ccc2c1-c1nc(N2CCOCC2)c2sc(CN3CCN(CC4CC4)CC3)cc2n1 (10 µM) 0
Cn1cc(-c2cc(Oc3cc(F)c(NC(=O)C4(C(=O)Nc5ccccc5)CC4)cc3F)ccn2)cn1 (2.5 µM) 0
COc1ccc(S(=O)(=O)Nc2cc(-c3c(O)ccc4ccccc34)c(O)c3ccccc23)cc1 (10 µM) 0
Cn1c2cc([S+](C)[O-])sc2c2cnn(Cc3cccc(N)c3)c(=O)c21 (stereo not drawn) (2.5 µM) 0
O=C(NCCO)c1cc(C(=O)NCCO)cc(C(=O)NCCO)c1 (10 µM) 0
N#Cc1cnc2c(Cl)cc(NCc3cn(CCN4CCCCCC4)nn3)cc2c1Nc1ccc(F)c(Cl)c1 [Cot inhibitor-1] (10 µM) 0
Cn1c(=O)c2c(nc(S(C)(=O)=O)n2C)n(CC#Cc2cccc(O)c2)c1=O (2.5 µM) 0
Cc1ccc(C)c(OCCn2cc(C(=O)O)c3ccccc32)c1 (10 µM) 0
C=CC(=O)Nc1ccc(C(=O)Nc2[nH]nc3c2CN(C(=O)N[C@H](CN(C)C)c2ccccc2)C3(C)C)cc1 (10 µM) 0
Nc1ncnc2c1nc(Br)n2[C@@H]1O[C@@H]2COP(=O)(O)O[C@H]2[C@H]1O [8-Bromo-cAMP sodium salt] (10 µM) 0
O=c1[nH]ccc2nc(-c3ccc(CN4CCC(c5nc(-c6ccccn6)n[nH]5)CC4)cc3)c(-c3ccccc3)cc12 (10 µM) 0
COc1ccc(Nc2ncc(C(F)(F)F)c(NC3CC3)n2)cc1OC (10 µM) 0
O=C1NC(=O)/C(=C\c2c[nH]c(=O)c(-c3ccc(N4CCNCC4)nc3)c2)S1 [Protein kinase inhibitors 1 hydrochloride] (10 µM) 0
CCN(CC)CCCC(C)Nc1nc(C)cc(Nc2ccc3nc(C)cc(N)c3c2)n1 (stereo not drawn) (10 µM) 0

Arranged by formula weight (low to high): 3 of the compounds above.
kinase-Nluc reporter destabilization hit call, inactive:
CNC(=O)CNc1cnc2ccc(-c3ccc(OC)c(OC)c3)cc2n1 (10 µM) 0
Nc1ncnc2c1nc(Br)n2[C@@H]1O[C@@H]2COP(=O)(O)O[C@H]2[C@H]1O [8-Bromo-cAMP sodium salt] (10 µM) 0
Cc1cnc(NC(=O)c2cc(Oc3cnc(C(=O)N(C)C)nc3)c3cc(C)oc3c2)cn1 (10 µM) 0
